According to patent publication US20120052005A1, “COMBINATION THERAPY TO IMPROVE DRUG EFFICIENCY” (University of Medicine and Dentistry of New Jersey, priority 2009, published 2012):
At least one compound was matched to its structure with a doubt left.

Tested on: ABCG2
Assay: Western blotting of ABCG2 protein level in Bewo cells
Type: cell-based
Settings: 24 hours treatment
Procedure: Cells were washed twice with cold phosphate-buffered saline and lysed in RIPA lysis buffer plus protease inhibitor. Protein concentrations of the cell lysates were determined using the bicinchoninic acid (BCA) protein assay as manufacturer's description. […] The secondary antibody was either horseradish peroxidase-conjugated goat-anti-mouse IgG (1:2,500; Amersham) or horseradish peroxidase-conjugated goat anti-rabbit immunoglobulin G (IgG; Santa Cruz Biotechnology). Immunoreactive bands were visualized using an enhanced chemiluminescent system (Pierce) according to the manufacturer's recommendations.
After treatment, the ABCG2 protein was analyzed by western-blotting using GAPDH as a protein loading control. […] The whole cell lysate was prepared after treatment and subjected to the western blotting to analyze protein level of ABCG2 using a monoclonal antibody BXP-21 (Kamiya Biomedical company).

O=c1cc(N2CCOCC2)oc2c(-c3ccccc3)cccc12 [LY294002]
ABCG2 protein level after treatment (western blot): downregulated ABCG2 expression in a dose-dependent manner
